In patent US20040077547A1, “FVIIa antagonists” (Genentech, Inc., priority 1999, published 2004):
These are yes or no findings as the source states them, for the method shown. Some binding calls cover weakened binding; strength is not graded here.

Chains of the proteins cited; added tags and fusions are not shown. Lines headed by an entry give the natural chain unless they say otherwise; changes in a name come on top. Residues count along the entry.
UniProt P13726: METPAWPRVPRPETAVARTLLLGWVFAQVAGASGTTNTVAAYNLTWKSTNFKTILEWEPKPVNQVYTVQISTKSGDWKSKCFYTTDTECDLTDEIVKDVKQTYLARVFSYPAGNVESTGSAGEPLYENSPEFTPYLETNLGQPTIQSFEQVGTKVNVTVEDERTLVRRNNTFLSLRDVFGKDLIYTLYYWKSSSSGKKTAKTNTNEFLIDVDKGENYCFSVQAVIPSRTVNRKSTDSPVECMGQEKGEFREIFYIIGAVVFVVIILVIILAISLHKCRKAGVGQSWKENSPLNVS
UniProt P08709, residues 61-466: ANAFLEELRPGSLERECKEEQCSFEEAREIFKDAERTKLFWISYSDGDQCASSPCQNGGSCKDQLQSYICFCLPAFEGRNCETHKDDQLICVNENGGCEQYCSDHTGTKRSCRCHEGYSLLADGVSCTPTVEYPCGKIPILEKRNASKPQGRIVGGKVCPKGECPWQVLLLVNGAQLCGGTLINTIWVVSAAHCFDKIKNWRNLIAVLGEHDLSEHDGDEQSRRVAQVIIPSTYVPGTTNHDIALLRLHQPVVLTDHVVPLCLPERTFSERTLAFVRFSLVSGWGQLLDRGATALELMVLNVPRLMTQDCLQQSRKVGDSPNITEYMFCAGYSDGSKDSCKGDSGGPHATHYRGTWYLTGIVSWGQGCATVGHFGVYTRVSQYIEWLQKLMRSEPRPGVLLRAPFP

Key:
[1] = target: covalently active site blocked TF-FVIIa (active site of FVIIa alkylated with biotinylated EGR chloromethylketone) (UniProt P13726); experiment: polyvalent phage binding to coated wells
[2] = target: recombinant human FVIIa (human) (UniProt P08709); experiment: polyvalent phage binding to coated wells
[3] = target: recombinant human FVIIa (human) (UniProt P08709); experiment: FVIIa Binding ELISA of FIG. 4, compared with SEQ ID NO: 4
[4] = target: recombinant human FVIIa (human) (UniProt P08709); experiment: FVIIa Binding ELISA of FIG. 4, compared with TF65 (SEQ ID NO: 4)

SAEWEVLCWTWEGCGSVGLV [TF53 peptide-phage (polyvalent phage clone from Pool A bearing …)]
binding [1]: binds
binding [2]: binds

EEWEVLCWTWETCERGEG [TF100]
binding [3]: binds

EEWEVLCWTWETCER [TF183]
binding [4]: binds
